Source: paper PMC5668370

Key:
[1] = molecular target: T1, RNF8 (endogenous, rat cerebellum) (rat (endogenous in cerebellum)) (UniProt Q4KLN8); experiment: co-IP; RNF8 antibody on protein G beads, overnight at 4 °C with the cytoplasmic fraction of rat cerebellum lysate; wash 50 mM Tris-HCl pH8.0, 150 mM NaCl, 0.5% Triton X-100; immunoblotting
T1 sequence: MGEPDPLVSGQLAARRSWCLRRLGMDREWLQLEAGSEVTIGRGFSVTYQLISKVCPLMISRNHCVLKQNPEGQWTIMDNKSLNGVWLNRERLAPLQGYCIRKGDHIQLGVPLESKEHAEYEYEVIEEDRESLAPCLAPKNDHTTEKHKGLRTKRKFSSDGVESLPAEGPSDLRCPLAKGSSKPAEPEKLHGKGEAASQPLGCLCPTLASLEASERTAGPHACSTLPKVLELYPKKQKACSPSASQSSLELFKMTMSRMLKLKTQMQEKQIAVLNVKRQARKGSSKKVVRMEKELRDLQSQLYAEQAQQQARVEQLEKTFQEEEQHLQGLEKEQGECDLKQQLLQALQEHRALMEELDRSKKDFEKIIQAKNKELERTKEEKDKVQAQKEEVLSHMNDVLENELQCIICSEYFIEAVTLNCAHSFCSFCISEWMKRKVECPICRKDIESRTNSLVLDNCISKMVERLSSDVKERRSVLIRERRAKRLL

Flag-NEURL4 (rat) = experiment: co-IP; 293T cells transfected with HA-HERC2 P6, Flag-NEURL4, GFP-RNF8 WT or GFP-RNF8 R42A; HA antibody with protein G beads or Flag M2 agarose, 2 h; 50 mM Tris-HCl pH8.0, 150 mM NaCl, 1% Triton X-100; immunoblotting

binding [1]: binds
Molecule: HERC2 (endogenous, rat cerebellum)

binding (Flag-NEURL4 (rat)): binds
B1: GFP-RNF8 WT (protein, UniProt Q4KLN8 1-487)
chain: T1 sequence

Results are given in words; binding and its absence hold for the method and conditions named. In cells and extracts the contact can be indirect. Binding can be weak; no strength is given. For some assays here: Sequences can lack the tags named with a protein. One block for each molecule: values may come before it.
